This is one part of the list.

Amino acid sequences for entries named in this document (tags omitted).
UniProt Q0JBA9, entry or part of it: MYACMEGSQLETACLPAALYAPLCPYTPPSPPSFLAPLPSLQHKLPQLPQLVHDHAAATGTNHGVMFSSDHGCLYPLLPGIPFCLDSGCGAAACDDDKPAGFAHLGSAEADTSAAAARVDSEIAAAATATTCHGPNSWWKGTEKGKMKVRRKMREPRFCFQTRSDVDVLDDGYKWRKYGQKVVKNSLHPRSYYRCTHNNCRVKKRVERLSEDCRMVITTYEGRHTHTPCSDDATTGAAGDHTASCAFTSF

This test concerns the target OsWRKY34 (Oryza sativa, UniProt Q0JBA9 1-250). In words: protein-binding microarray (RPBM); PBS, 2% BSA, 51.3 ng/ul salmon testes DNA, 50 uM zinc acetate, 200 nM TF, 25 C, 1 h; high values mean tight binding. Conditions: protein: recombinant; tags: N-terminal polyhistidine and DsRed monomer fusion (pET32a); label: CyDye5-dUTP incorporated in the synthesized complementary strand; 3' TTTTT single-stranded linker to array surface; dsDNA, one strand shown. In outline: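 An Axon 4000B scanner gave the binding signal as per-feature fluorescence intensity in arbitrary units. This followed washing of a custom Agilent array that had been incubated for 1 h at 25 °C with 200 nM protein in PBS, 2% BSA, salmon testes DNA and 50 µM zinc acetate. The proteins were transcription factors fused at the N-terminus to polyhistidine and DsRed, expressed in E. coli BL21-CodonPlus and purified on Ni–NTA.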
With “CTCTCTTTTCCTTTTCTAATTTTAGATTTTATTTTATTTTCGGAGTCACCTAGTGCAG”, the binding signal is 8600 fluorescence intensity (a.u.).

On to “TCGCTGCTGAGTGTTGACCCGGCCCAGATGAACTTGACAACGGAGTCACCTAGTGCAG”, for which the binding signal was 8500 fluorescence intensity (a.u.).

Take “AGTTTTGCTAGCTGCTGCTTCACTCTACTGTTCGGCCATGCGGAGTCACCTAGTGCAG”: the binding signal was 8260 fluorescence intensity (a.u.).

For the sequence “GGTCTACAAAATATACCTTTGACCTTATTTTTTATTATAACGGAGTCACCTAGTGCAG”, the binding signal was 8210 fluorescence intensity (a.u.).

For the sequence “TCATTATTAGCCGATTGGTTTCTACTGATTTATATTCTTGCGGAGTCACCTAGTGCAG”, the binding signal is 8410 fluorescence intensity (a.u.).

Turning to “GTCATTTTCTGTATGCTATTCTATATTGGAAGCTTTCTGTCGGAGTCACCTAGTGCAG”, the binding signal was 8300 fluorescence intensity (a.u.).

As for “CTATTCGTATATGCACTTCCATTCCAAAATATAATAACTTCGGAGTCACCTAGTGCAG”, the binding signal is 8810 fluorescence intensity (a.u.).

For the sequence “GTGGTTATTTGGCTCTAAGGGTTATGTCCGCTTGCGAAAACGGAGTCACCTAGTGCAG”, the binding signal was 8940 fluorescence intensity (a.u.).

With “TTCCTCTCCTCTTCTGCGCGGCTTCAAAGTTTTCGGCTTTCGGAGTCACCTAGTGCAG”, the binding signal was 8510 fluorescence intensity (a.u.).

For “TTTCATTTATTTCTCATTTCTTAATCCCATTTGTATTTTTCGGAGTCACCTAGTGCAG”, the binding signal was 8380 fluorescence intensity (a.u.).

As for “TATTTGATTCAACTGTGCTATTTACATTTTCTTCAATTTTCGGAGTCACCTAGTGCAG”, the binding signal was 11700 fluorescence intensity (a.u.).

Take “TCGCCGAGGAGAGCAGAGCAGGGGAGGGGAGGGGATCCTGCGGAGTCACCTAGTGCAG”: the binding signal was 10900 fluorescence intensity (a.u.).

Consider “AATGTATTTTTTCTAAATTTTTTTTCATCTTGTCCGTTCCCGGAGTCACCTAGTGCAG”, for which the binding signal was 8230 fluorescence intensity (a.u.).

With “CTCCCAAATCATTCCATCTGCTGCCTTTGCAAGTTTCAACCGGAGTCACCTAGTGCAG”, the binding signal is 13700 fluorescence intensity (a.u.).

Consider “AAGTTATCACTATCAACTTTCGGCGCTGCCTGTTTACATACGGAGTCACCTAGTGCAG”, for which the binding signal is 10100 fluorescence intensity (a.u.).

For “CTTCCCATGCACGCCGCTCTCACCTGATTGCCATTGTCCGCGGAGTCACCTAGTGCAG”, the binding signal is 11400 fluorescence intensity (a.u.).

For the sequence “CGACATGCTCGTTCGCTCTGTCCGCTCTGCGCGCCACTCTCGGAGTCACCTAGTGCAG”, the binding signal was 8400 fluorescence intensity (a.u.).

As for “ACATCATATCTAAGGTTAGTTTCACCTGTGTACTTGCATACGGAGTCACCTAGTGCAG”, the binding signal is 10800 fluorescence intensity (a.u.).

With “TGCATGCTTCATTGGTCTCACCATCTTGAACTTGAATTCACGGAGTCACCTAGTGCAG”, the binding signal is 8290 fluorescence intensity (a.u.).

Take “AGACTATATTGTGCCATCCTTTGGTATCCTTATGCATTTGCGGAGTCACCTAGTGCAG”: the binding signal was 9560 fluorescence intensity (a.u.).

For the sequence “GTCATGCAATACGTTTGACCATATTGTACCCAATTTACAACGGAGTCACCTAGTGCAG”, the binding signal was 9840 fluorescence intensity (a.u.).

For “GCACGCAACGCATCTCCGCCGTCCATCGCATCCACCCCGCCGGAGTCACCTAGTGCAG”, the binding signal is 12200 fluorescence intensity (a.u.).

Regarding “TTGTCTCCTATCTTGTGCCGTGCCTTCTTAAACCATTGCTCGGAGTCACCTAGTGCAG”, the binding signal is 8610 fluorescence intensity (a.u.).

For “TCCTTTTACGTTCTTGTATTAGAATCAATCTTTTTTTGTCCGGAGTCACCTAGTGCAG”, the binding signal is 8520 fluorescence intensity (a.u.).

As for “TTCTGCCGCCCGCCGCCCGGGAAGCTCCGCCTCCGCCGTCCGGAGTCACCTAGTGCAG”, the binding signal is 8850 fluorescence intensity (a.u.).

“CTCCTCGCTTCTTCTCGCCGCCGCGCCCGCGCGCTGCTGCCGGAGTCACCTAGTGCAG”: the binding signal is 8750 fluorescence intensity (a.u.).

For “AGGTTCCGGGAGGGCGGGGTGGAGCACGAGGCGGCGGTGCCGGAGTCACCTAGTGCAG”, the binding signal was 10600 fluorescence intensity (a.u.).

With “GCTATGATCCTTTTTTTTTCTTCTCGTCTGGCTTTTGTCACGGAGTCACCTAGTGCAG”, the binding signal was 10700 fluorescence intensity (a.u.).

“TTGATCTGGTTTTCGCAGGTTGCCGCTTCGAATCTCGCCGCGGAGTCACCTAGTGCAG”: the binding signal was 10700 fluorescence intensity (a.u.).

In the case of “TGTACTGTGCCAACAACTCCACTGTCCACTCACTTTTTCTCGGAGTCACCTAGTGCAG”, the binding signal is 8570 fluorescence intensity (a.u.).

Turning to “GCTTACGTGTGCCGAAGCAGCGGCGGCCGGCGCCTCCTCCCGGAGTCACCTAGTGCAG”, the binding signal was 8250 fluorescence intensity (a.u.).

In the case of “GATTGCTCTGCCTGGGGACGGTGTTGCTCTGCTTGGACTTCGGAGTCACCTAGTGCAG”, the binding signal is 8220 fluorescence intensity (a.u.).

On to “AACCGCAACCAACTAACTCTCCCGGGAGATCACGGGCATTCGGAGTCACCTAGTGCAG”, for which the binding signal is 8310 fluorescence intensity (a.u.).

Turning to “ACCAGAACCAGCTGTTCCGTTGACCGGACCACCAACGCTGCGGAGTCACCTAGTGCAG”, the binding signal is 15500 fluorescence intensity (a.u.).

Regarding “TCGATCGATCACGTCGCAAACACACACAGTACACACGCAACGGAGTCACCTAGTGCAG”, the binding signal is 8370 fluorescence intensity (a.u.).

Regarding “GTGGCGCCGGCGTCCTCCTGCTCCCGCCTCATTCGCTCACCGGAGTCACCTAGTGCAG”, the binding signal was 9900 fluorescence intensity (a.u.).

Regarding “GGAACGGCCAGCGGCGGCGGCGGGTAGGGTGGGGTGGGGCCGGAGTCACCTAGTGCAG”, the binding signal is 21600 fluorescence intensity (a.u.).

Turning to “ATGTGGACTTTTTTCCAATTTCCCCGCACTGCCCGCCCCGCGGAGTCACCTAGTGCAG”, the binding signal was 8590 fluorescence intensity (a.u.).

As to “GTCCCTGGCTTTCTTCGTCTCTCTTCATGTCGCCGGCACACGGAGTCACCTAGTGCAG”, the binding signal is 10600 fluorescence intensity (a.u.).

As for “GCACTCTCTCTCTCCTCGTTGTCCCTCCCGTCCCGTCTCTCGGAGTCACCTAGTGCAG”, the binding signal was 8110 fluorescence intensity (a.u.).

For the sequence “TTCTTCCTCGCCGGCCACACACAGTTCATCCAACCACTTGCGGAGTCACCTAGTGCAG”, the binding signal was 11600 fluorescence intensity (a.u.).

As for “GTGTGTTTTTCTGTATGTTGGGGTAGCAGCAAGCAGGAGGCGGAGTCACCTAGTGCAG”, the binding signal is 8460 fluorescence intensity (a.u.).

The values above are taken from article PMC7819943, “Rice protein-binding microarrays: a tool to detect cis-acting elements near promoter regions in rice”.
